# Measurements from publication PMC6160236, “Disrupted structure and aberrant function of CHIP mediates the loss of motor and cognitive function in preclinical models of SCAR16” (PLoS Genetics, 2018).
# By UniProt entry, the sequences of proteins in these tests, tags left out. Where a name states a change or a piece, a line headed by the entry shows the natural chain unless it says otherwise.
# UniProt Q9WUD1: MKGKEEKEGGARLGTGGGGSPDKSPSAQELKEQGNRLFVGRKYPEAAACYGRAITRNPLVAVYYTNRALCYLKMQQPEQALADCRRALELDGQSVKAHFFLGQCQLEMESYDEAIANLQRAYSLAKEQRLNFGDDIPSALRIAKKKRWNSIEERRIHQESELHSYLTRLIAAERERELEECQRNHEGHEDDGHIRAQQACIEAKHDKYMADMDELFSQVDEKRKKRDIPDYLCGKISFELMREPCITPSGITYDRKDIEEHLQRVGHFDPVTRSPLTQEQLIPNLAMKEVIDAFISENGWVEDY
# UniProt Q9UNE7: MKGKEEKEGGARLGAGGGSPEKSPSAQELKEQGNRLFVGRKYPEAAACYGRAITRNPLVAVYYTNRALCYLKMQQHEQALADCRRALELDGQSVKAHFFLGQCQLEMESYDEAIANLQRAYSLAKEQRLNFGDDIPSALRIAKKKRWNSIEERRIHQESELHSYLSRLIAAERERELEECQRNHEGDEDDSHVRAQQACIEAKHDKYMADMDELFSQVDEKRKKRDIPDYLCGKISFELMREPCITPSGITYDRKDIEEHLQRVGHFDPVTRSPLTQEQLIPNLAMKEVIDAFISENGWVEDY
# Results are given in words; binding and its absence hold for the method and conditions named. For part of these data: Binding seen in cells or lysates may run through a third protein. Some binding calls cover weakened binding; strength is not graded here.
# Tests used:
# [1] = biological target: endogenous mouse CHIP, wild type (T246/T246 mice) (mouse (endogenous in MEFs and mouse tissue)) (UniProt Q9WUD1); assay: native gel or EMSA; blue native PAGE of fresh mouse cerebellum and testes extracts (Native PAGE sample buffer, 1% digitonin), immunoblot for CHIP; recombinant CHIP run as a reference
# [2] = biological target: myc-CHIP-T246M (pcDNA3-mycCHIP-T246M) (human) (UniProt Q9UNE7); assay: native gel or EMSA; blue native PAGE (4-16% NativePAGE) of fresh lysates of transfected COS-7 cells, immunoblot with anti-myc
# [3] = biological target: HA-CHIP wild type (pcDNA3-HA-CHIP) (human) (UniProt Q9UNE7); assay: co-IP; COS-7 cells co-transfected with HA-WT and Myc-TM; immunoprecipitation with Anti-HA or Anti-Myc affinity gel, immunoblot
# [4] = biological target: endogenous mouse CHIP-T246M (murine T247M, M246/M246 mice) (mouse (endogenous in MEFs and mouse tissue)) (UniProt Q9WUD1); assay: native gel or EMSA; blue native PAGE of fresh mouse cerebellum and testes extracts (Native PAGE sample buffer, 1% digitonin), immunoblot for CHIP; recombinant CHIP run as a reference
# [5] = biological target: myc-CHIP-H260Q (pcDNA3-mycCHIP-H260Q) (human) (UniProt Q9UNE7); assay: native gel or EMSA; blue native PAGE (4-16% NativePAGE) of fresh lysates of transfected COS-7 cells, immunoblot with anti-myc
# [6] = biological target: myc-CHIP-T246M (pcDNA3-mycCHIP-T246M) (human) (UniProt Q9UNE7); assay: co-IP; COS-7 cells co-transfected with HA-WT and Myc-TM; immunoprecipitation with Anti-HA or Anti-Myc affinity gel, immunoblot
substance,measurement,setting,value
"endogenous mouse CHIP, wild type (T246/T246 mice) (from UniProt Q9WUD1 1-304) (enzyme)",binding,[1],binds
myc-CHIP-T246M (pcDNA3-mycCHIP-T246M) (from UniProt Q9UNE7 1-303) (enzyme),binding,[2],binds
same,binding,[3],binds
"endogenous mouse CHIP-T246M (murine T247M, M246/M246 mice) (from UniProt Q9WUD1 1-304) (enzyme)",binding,[4],binds
myc-CHIP-H260Q (pcDNA3-mycCHIP-H260Q) (from UniProt Q9UNE7 1-303) (enzyme),binding,[5],binds
HA-CHIP wild type (pcDNA3-HA-CHIP) (from UniProt Q9UNE7 1-303) (enzyme),binding,[6],binds
